Results are given in words; binding and its absence hold for the method and conditions named. Some results given as binding are weak or reduced against the parent protein; the word gives no strength.

By UniProt entry, the sequences of proteins in these tests, tags left out. Residues count along the entry.
UniProt O75365: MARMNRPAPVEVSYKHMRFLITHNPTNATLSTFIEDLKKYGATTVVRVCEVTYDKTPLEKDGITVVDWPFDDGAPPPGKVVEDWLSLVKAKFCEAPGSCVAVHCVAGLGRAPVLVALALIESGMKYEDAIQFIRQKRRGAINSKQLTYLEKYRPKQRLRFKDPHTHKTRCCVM
UniProt Q8NE01, residues 309-452: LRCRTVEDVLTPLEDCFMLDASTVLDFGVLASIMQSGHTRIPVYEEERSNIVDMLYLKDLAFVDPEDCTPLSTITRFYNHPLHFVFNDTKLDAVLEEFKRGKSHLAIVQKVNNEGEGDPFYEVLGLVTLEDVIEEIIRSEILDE

The target of the assay is recombinant 3XFLAG-PRL-3 (human) (UniProt O75365). As to the kind of experiment: co-IP; purified 3XFLAG-PRL-3 on anti-FLAG M2 magnetic beads; CBS-HA and nanobody added in 1:1.1 molar ratios, alone, one after the other or together, 1 h each at 4 C; 300 mM NaCl, 20 mM Tris pH 7.5; western blot (anti-HA, anti-His, anti-FLAG); both purified. In general terms: A western blot detects proteins with antibodies after separation by electrophoresis.

As to “CBS-HA (CNNM3 CBS domain pair fused to a hemagglutinin tag) (from UniProt Q8NE01 309-452) (domain or fragment)”, the binding result is given as “binds”.

The record behind these values is article PMC10204944, “Development and characterization of nanobodies that specifically target the oncogenic Phosphatase of Regenerating Liver-3 (PRL-3) and impact its interaction with a known binding partner, CNNM3” (PLOS ONE, 2023).
